Assay results: paper PMC4398322, “Snake neurotoxin α-bungarotoxin is an antagonist at native GABAA receptors” (Neuropharmacology, 2015)

Tested on: native hippocampal GABAARs
Type: cell-based, rat
Conditions: read-out: GABA EC50
Experimental: Dissociated hippocampal neurons were prepared from embryonic day 18 rat pups as described ([Hannan et al., 2012]). Briefly, hippocampi were dissected in ice-cold Hank's Balanced Salt Solution (HBSS) (Ca^2+/Mg^2+ free) before enzymatic dissociation in 0.1% (w/v) trypsin at 37 °C for 10 min followed by serial washes in pre-warmed HBSS to remove trypsin prior to trituration. Cells were mechanically dissociated using fire-polished glass Pasteur pipettes in plating medium composed of minimal essential medium (MEM) supplemented with 5% (v/v) fetal calf serum (FCS), 5% (v/v) horse serum, penicillin-G and streptomycin (200 units/ml and 200 μg/ml), 2 mM L-glutamine and 35 mM glucose. Cells were plated at a density of 10^6 per ml in plating medium on glass cover-slips previously coated with poly-D-lysine. […]
Patch electrodes had resistances of 4–5 MΩ and were filled with an internal solution containing (mM): 120 CsCl 1 MgCl2, 11 EGTA, 30 KOH, 10 HEPES, 1 CaCl2, and 2 K2ATP; pH – 7.2. […] Neuronal membrane currents were similarly recorded at a holding potential of −60 mV.
Spontaneous inhibitory postsynaptic currents (IPSCs) were recorded from dentate gyrus granule cells (DGGCs) with the same internal solution as above. Cells were voltage clamped at −60 mV and IPSCs were recorded using 5 kHz filtering with optimal series resistance and whole-cell capacitance compensation.

## NCCCC(=O)O [GABA, γ-aminobutyric acid]
  EC50: 1230 ± 40 nM
